Some entries share one result that the patent states for a list of compounds.
target: T1, hPPARδ (LBD) (Homo sapiens, UniProt Q03181); experiment: PPAR activating effect, GAL4-hPPARδ LBD luciferase reporter transfection in CV-1 cells; type: cell-based; settings: Table 26; test compound 10^-7 M; 100% = GW-501516 10^-7 M
T1 construct: A receptor expression plasmid (pSG5-GAL4-hPPARα or γ or δ (LBD)); GAL4 (fusion partner); expressed in transfected cells; host or cells: CV-1 cells (ATCC)
T1 sequence (Q03181 211-439 limits assumed): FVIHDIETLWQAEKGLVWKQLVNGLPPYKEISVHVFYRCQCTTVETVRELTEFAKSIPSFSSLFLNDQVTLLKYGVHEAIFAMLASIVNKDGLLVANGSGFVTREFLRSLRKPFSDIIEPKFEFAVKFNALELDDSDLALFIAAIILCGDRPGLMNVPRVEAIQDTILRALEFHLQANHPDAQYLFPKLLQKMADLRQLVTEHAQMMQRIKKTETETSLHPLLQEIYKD

Compound | PPAR activity δ (relative value to control compound)
CCCc1c(CCc2noc3cc(CCC(=O)O)c(C)cc23)sc2cc(C(F)(F)F)ccc12 [Example 26, 3-[5-Methyl-3-[2-[3-propyl-6-(trifluoromethyl)benzothiophen-2-yl]ethyl]benzisoxazol-6-yl]propionic acid] | excellent PPAR δ activating effect
CC(C)c1c(CCc2noc3cc(N(C)CC(=O)O)ccc23)sc2cc(C(F)(F)F)ccc12 [Example 28, N-[3-[2-[3-Isopropyl-6-(trifluoromethyl)benzothiophen-2-yl]ethyl]benzisoxazol-6-yl]-N-methylglycine] | excellent PPAR δ activating effect
CCCc1c(CCc2noc3cc(N(C)CC(=O)O)c(C)cc23)sc2cc(C(F)(F)F)ccc12 [Example 24, N-[5-Methyl-3-[2-[3-propyl-6-(trifluoromethyl)benzothiophen-2-yl]ethyl]benzisoxazol-6-yl]-N-methylglycine] | excellent PPAR δ activating effect
CCCc1c(CCC(=NO)c2cc(C)c(OCC(=O)O)cc2O)sc2cc(C(F)(F)F)ccc12 [Example 23, 5-Hydroxy-4-[1-hydroxyimino-3-[3-propyl-6-(trifluoromethyl)benzothiophen-2-yl]propyl]-2-methyl-phenoxyacetic acid] | excellent PPAR δ activating effect
CCCc1c(CCc2noc3cc(OCC(=O)O)c(C)cc23)sc2cc(C(F)(F)F)ccc12 [Example 25, [5-Methyl-3-[2-[3-propyl-6-(trifluoromethyl)benzothiophen-2-yl]ethyl]benzisoxazol-6-yloxy]acetic acid] | excellent PPAR δ activating effect
